# Experimental data reported in PubChem BioAssay (Tox21).
# Chains of the proteins cited; added tags and fusions are not shown. Lines headed by an entry give the natural chain unless they say otherwise; changes in a name come on top.
# UniProt P11229: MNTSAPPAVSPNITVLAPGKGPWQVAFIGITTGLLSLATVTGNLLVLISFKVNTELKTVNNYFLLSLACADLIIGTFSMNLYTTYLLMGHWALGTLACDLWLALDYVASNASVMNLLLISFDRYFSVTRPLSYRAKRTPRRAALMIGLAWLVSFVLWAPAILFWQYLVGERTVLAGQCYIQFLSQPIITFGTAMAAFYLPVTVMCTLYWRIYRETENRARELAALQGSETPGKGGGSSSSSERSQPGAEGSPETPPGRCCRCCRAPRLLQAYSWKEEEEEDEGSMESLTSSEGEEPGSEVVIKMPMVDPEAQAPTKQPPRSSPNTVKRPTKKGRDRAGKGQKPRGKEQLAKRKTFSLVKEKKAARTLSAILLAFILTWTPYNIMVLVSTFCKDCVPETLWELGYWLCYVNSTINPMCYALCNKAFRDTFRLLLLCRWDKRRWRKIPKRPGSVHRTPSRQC
# UniProt P28223, whole entry, looked up: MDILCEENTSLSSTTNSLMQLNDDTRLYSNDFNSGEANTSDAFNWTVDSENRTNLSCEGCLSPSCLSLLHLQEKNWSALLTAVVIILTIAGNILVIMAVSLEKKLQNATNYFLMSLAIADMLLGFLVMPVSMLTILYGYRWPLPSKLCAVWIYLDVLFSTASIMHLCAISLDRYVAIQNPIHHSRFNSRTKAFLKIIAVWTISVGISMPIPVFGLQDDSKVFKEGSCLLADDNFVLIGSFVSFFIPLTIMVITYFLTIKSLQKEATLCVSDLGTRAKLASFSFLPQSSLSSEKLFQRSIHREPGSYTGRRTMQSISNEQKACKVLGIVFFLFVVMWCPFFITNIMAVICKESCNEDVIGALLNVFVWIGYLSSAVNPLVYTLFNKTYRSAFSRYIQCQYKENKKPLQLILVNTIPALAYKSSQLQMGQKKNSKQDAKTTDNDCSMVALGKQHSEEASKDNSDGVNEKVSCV
# UniProt P14416, whole entry, looked up: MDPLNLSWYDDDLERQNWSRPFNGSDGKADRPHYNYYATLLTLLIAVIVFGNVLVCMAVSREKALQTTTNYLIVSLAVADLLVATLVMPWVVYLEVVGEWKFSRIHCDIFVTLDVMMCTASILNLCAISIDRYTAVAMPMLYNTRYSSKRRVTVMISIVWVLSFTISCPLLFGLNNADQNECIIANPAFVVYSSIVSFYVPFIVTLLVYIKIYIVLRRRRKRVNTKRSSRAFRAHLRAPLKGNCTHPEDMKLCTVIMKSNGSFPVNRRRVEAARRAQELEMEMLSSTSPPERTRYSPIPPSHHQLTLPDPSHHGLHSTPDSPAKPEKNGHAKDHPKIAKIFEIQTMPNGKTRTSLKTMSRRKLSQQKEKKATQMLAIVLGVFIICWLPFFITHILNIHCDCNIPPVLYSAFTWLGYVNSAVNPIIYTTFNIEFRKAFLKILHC
# “And” between values parts separate entries of the source, which are not always exact repeats. Identical values can stand only once. The inconclusive results got no clear call from the source; some entries with a clear call stand among them for comparison. A potency beside an inconclusive call is a rough fit, not a confirmed value. The source made the active and inactive calls. Unless noted, the call rests on the fitted dose curve.
# Experiments:
# [1] = p53 small molecule agonists, cell-based qHTS assay with human liver microsomes (AID 1963577); details: HCT-116 p53RE-bla with human liver microsomes, ratio, 16 h; activation: at 66 µM (top of the series) unless noted;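 on activation: p53 response element beta-lactamase reporter cells with liver microsomes plus NADPH; on the % scale 0 is the no-effect control and ±100 the full control effect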
# Procedure, shortened: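 With metabolic activation: human liver microsomes (0.5 mg/mL final) plus NADPH (0.5 mg/mL final) added alongside compounds to p53RE-bla cells; 16 h 37 C exposure; beta-lactamase read by LiveBLAzer fluorescence.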
# [2] = p53 small molecule agonists, cell-based qHTS assay with human liver microsomes: qHTS cell viability counter screen (AID 1963579); further: nearly all actives have a fitted effect of over 45% in size
# Procedure, shortened: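 Metabolic activation used human liver microsomes and NADPH, both 0.5 mg/mL final, over 16 hours at 37 C on p53RE-bla cells (4,000/well). Cytotoxicity measured by CellTiter-Glo luminescence, 30 min at room temperature.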
# [3] = molecular target: Muscarinic acetylcholine receptor M1 (Homo sapiens) (UniProt P11229); experiment: Cholinergic receptor muscarinic 1 (CHRM1) small molecule antagonists, cell-based qHTS assay (AID 1963588); further: nearly all actives have a fitted effect of over 40% in size
# Procedure, shortened: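 Compounds were tested at 15 concentrations in three independent runs. Dye-loaded CHRM1-CHO cells were exposed 5 min at room temperature before stimulation by acetylcholine added at 50nM. Intracellular calcium was read kinetically on FDSS for 3 min.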
# [4] = molecular target: Beta-2 adrenergic receptor (Homo sapiens) (UniProt P07550); experiment: Adrenergic beta2 receptor (ADRB2) small molecule agonists, cell-based qHTS assay (AID 1963593); details: CHO-ADRB2 cells, cAMP HTRF, 30 min; activation: at 92.4 µM (top of the series) unless noted;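 on activation: CHO cells stably overexpressing human ADRB2; on the % scale 0 is the no-effect control and ±100 the full control effect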
# Procedure, shortened: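 CHO cells stably over-expressing ADRB2 were plated overnight at 37C, then dosed with compounds plus a stimulation mix containing 100uM IBMX and 25uM Ro-20-1724 for 0.5hr at room temperature. cAMP was measured by HTRF competition, 1hr.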
# [5] = cAMP Responsive Elements (CRE) small molecule antagonists, cell-based qHTS assay (AID 1963591; active means well fitted inhibition curve with a large enough effect in the signal ratio in the repeat runs, not every such curve was filed as active; inconclusive means weak or mixed curves, or effect the other way; the % refers to the signal ratio; on activity change, negative = inhibition: on the % scale 0 is the no-effect control and ±100 the full control effect); details: CRE-bla HEK293T, beta-lactamase FRET ratio; activity change, negative = inhibition: at 92.4 µM (top of the series) unless noted
# Procedure, shortened: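 HEK293T CRE-bla; 18 h preincubation; compound pin-transfer; NKH477 0.25 uM final, 3 h, 37 C; LiveBLAzer FRET substrate 2 h RT.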
# [6] = p53 small molecule agonists, cell-based qHTS assay: qHTS cell viability counter screen (AID 1963581); further: nearly all actives have a fitted effect of over 45% in size
# Procedure, shortened: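 Cytotoxicity read-out: ATP-based luminescence (CellTiter-Glo, 30 min RT) measured in the same wells as the p53 reporter assay, HCT-116 p53RE-bla cells, 16 h compound exposure at 37 C.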
# [7] = p53 small molecule agonists, cell-based qHTS assay (AID 1963582; active means well fitted activation curve with a large enough effect in the signal ratio in the repeat runs, not every such curve was filed as active; inconclusive means weak or mixed curves; the % refers to the signal ratio); details: HCT-116 p53RE-bla reporter, beta-lactamase FRET ratio, 16 h; activation: at 66 µM (top of the series) unless noted
# Procedure, shortened: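 Fluorescence intensity read-out of a beta-lactamase reporter under a p53 response element. Cells were exposed to DMSO-dissolved compounds for 16 h at 37 C, then developed with FRET substrate for 2 h at RT.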
# [8] = cAMP Responsive Elements (CRE) small molecule agonists, cell-based qHTS assay (AID 1963590); details: CRE-bla HEK293T, beta-lactamase FRET ratio, 3 h; activation: at 92.4 µM (top of the series) unless noted
# Procedure, shortened: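 Beta-lactamase reporter readout: LiveBLAzer B/G FRET substrate, 2 h at room temperature, added after 3 h compound treatment of CRE-bla HEK 293T cells at 37 C/5% CO2.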
# [9] = molecular target: Beta-2 adrenergic receptor (Homo sapiens) (UniProt P07550); experiment: Adrenergic beta2 receptor (ADRB2) small molecule antagonists, cell-based qHTS assay (AID 1963592); details: CHO-ADRB2 cells, isoproterenol-stimulated cAMP HTRF ratio, 0.5 h; activity change, negative = inhibition: at 92.4 µM (top of the series) unless noted; further: nearly all actives have a fitted effect of over 50% in size
# Procedure, shortened: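 Assay format: CHO-ADRB2 cells, 18-20hr seeding at 37C/5% CO2, then compound plus 1nM isoproterenol agonist mix for 0.5hr RT. Homogeneous time-resolved fluorescence cAMP detection after 1hr, expressed as 665/615 nm ratio.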
# [10] = p53 small molecule agonists, cell-based qHTS assay with rat liver microsomes: qHTS cell viability counter screen (AID 1963580); further: nearly all actives have a fitted effect of over 45% in size
# Procedure, shortened: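 Cytotoxicity counter screen: intracellular ATP measured by CellTiter-Glo luminescence in the same wells as the beta-lactamase reporter read, on HCT-116 p53RE-bla cells exposed 16 h at 37 C to compounds with rat liver microsomes and NADPH, each 0.5 mg/mL final.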
# [11] = molecular target: 5-hydroxytryptamine receptor 2A (Homo sapiens) (UniProt P28223); experiment: 5-hydroxytryptamine receptor 2A (HTR2A) small molecule antagonists, cell-based qHTS assay (AID 1963586); further: nearly all actives have a fitted effect of over 45% in size
# Procedure, shortened: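 CHO cells stably expressing human HTR2A were plated for 18 h at 37 C, then loaded with calcium dye for 1 h. Compounds were preincubated 5 min at room temperature before DOI (4 nM solution) was added. Kinetic fluorescence was read for 3 min.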
# [12] = molecular target: D(2) dopamine receptor (Homo sapiens) (UniProt P14416); experiment: Dopamine D2 receptor (DRD2) small molecule antagonists, cell-based qHTS assay (AID 1963595; active means well fitted inhibition curve with a large enough effect in the signal ratio in the repeat runs, with a control signal flat; inconclusive means weak or mixed curves, or effect the other way; the % refers to the signal ratio); details: HEK293-DRD2 cAMP HTRF antagonist mode; activity change, negative = inhibition: at 92.4 µM (top of the series) unless noted
# Procedure, shortened: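 Cells were plated and grown for 24 h at 37 °C. Ro20-1724 (0.1 mM final) went in first, then compound for 10 min. NKH477 (200 nM) with quinpirole (12 nM) followed for 30 min at RT, then HTRF detection reagents for 1 h.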
# [13] = molecular target: D(2) dopamine receptor (Homo sapiens) (UniProt P14416); experiment: Dopamine D2 receptor (DRD2) small molecule agonists, cell-based qHTS assay (AID 1963594); details: HEK293-DRD2 cAMP HTRF, agonist mode, 30 min; activation: at 92.4 µM (top of the series) unless noted; further: nearly all actives have a fitted effect of over 35% in size; on activation: on the % scale 0 is the no-effect control and ±100 the full control effect
# Procedure, shortened: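 HEK293 cells stably expressing human DRD2, pre-treated with PDE inhibitor Ro20-1724 (0.1 mM final) and compound 10 min at room temperature, then stimulated with NKH477 (200nM […]) for 30 min. cAMP read by HTRF (665/620 nm).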
# Potency means the concentration at half of the fitted maximal effect.
smiles,measurement,setting,value
CN=C=O,Potency,[1],inactive
same,Potency,[2],inactive
same,Potency,[3],inactive
same,activation,[4],inconclusive: 0.684%
Nc1ccc(-c2ccc(N)cc2)cc1,Potency,[1],inconclusive: 45.8 µM
same,Potency,[2],"inconclusive: 57.6 µM [rising, single point]"
same,Potency,[5],"inconclusive: 67.8 µM [activator, partial curve, poor fit]"
same,activation,[4],inconclusive: 5.82% [at 42.5 µM]
CCCCCCCCBr,Potency,[1],inconclusive: 45.8 µM [fluorescent]
same,Potency,[6],inactive
same,activation,[4],inconclusive: -17.8%
CN(C)[C@@H]1C(=O)C(C(N)=O)=C(O)[C@@]2(O)C(=O)C3=C(O)c4c(O)ccc(Cl)c4[C@@](C)(O)[C@H]3C[C@@H]12,Potency,[1],"inconclusive: 46.7 µM [rising, single point]"
same,Potency,[6],"inconclusive: 1.48 µM [cytotoxic, single point]"
same,Potency,[7],"inconclusive: 41.7 µM [rising, partial curve]"
same,Potency,[8],inconclusive: 62.4 µM [fluorescent]
same,Potency,[5],inconclusive: 62.4 µM [single point]
same,Potency,[9],"inconclusive: 70 µM [falling, partial curve, poor fit]"
same,Potency,[4],inactive
CC[n+]1c(-c2ccccc2)c2cc(N)ccc2c2ccc(N)cc21,activation,[1],inconclusive: 35.9% [at 30.3 µM]
same,Potency,[10],"inconclusive: 4.56 µM [cytotoxic, full curve, poor fit] and inconclusive: 7.07 µM [cytotoxic, partial curve]"
same,Potency,[6],inactive
same,Potency,[11],"inconclusive: 23.1 µM [inhibitor, single point]"
same,Potency,[4],"inconclusive: 54.2 µM [falling, partial curve] and inconclusive: 18.8 µM [falling, partial curve]"
same,Potency,[12],"inconclusive: 34.2 µM [cytotoxic, partial curve] and inconclusive: 23.7 µM [cytotoxic, partial curve]"
c1ccc2c(c1)oc1ccccc12,Potency,[1],inactive
same,Potency,[10],"inconclusive: 11.7 µM [cytotoxic, single point]"
same,activation,[4],inconclusive: 33.5%
COc1ccc2c3c1O[C@H]1[C@@H](O)C=C[C@H]4[C@@H](C2)N(C)CC[C@@]341,Potency,[1],inactive
same,Potency,[2],"inconclusive: 35.8 µM [rising, partial curve]"
same,Potency,[7],"inconclusive: 35.8 µM [activator, partial curve, poor fit]"
same,Potency,[5],inconclusive: 26.9 µM [fluorescent]
same,Potency,[4],"inconclusive: 53.6 µM [activator, single point]"
same,activation,[13],inconclusive: -20%
same,Potency,[12],"inconclusive: 53.6 µM [inhibitor, partial curve]"
c1cc[n+]2c(c1)-c1cccc[n+]1CC2,Potency,[1],"inconclusive: 0.199 µM [rising, single point]"
same,Potency,[2],"inconclusive: 0.199 µM [cytotoxic, single point]"
same,Potency,[6],"inconclusive: 17.8 µM [cytotoxic, single point]"
same,Potency,[7],"inconclusive: 11.2 µM [falling, partial curve, poor fit]"
Cc1nnc(-c2ccccc2)c(=O)n1N,Potency,[1],"inconclusive: 51.3 µM [fluorescent, single point]"
same,Potency,[10],"inconclusive: 10.2 µM [cytotoxic, single point]"
same,Potency,[4],"inconclusive: 13.7 µM [inhibitor, single point]"
C[Si](Cn1cncn1)(c1ccc(F)cc1)c1ccc(F)cc1,Potency,[1],"inconclusive: 45.8 µM [rising, single point]"
same,Potency,[10],"inconclusive: 47.3 µM [cytotoxic, single point]"
same,Potency,[6],inactive
same,Potency,[7],"inconclusive: 29.8 µM [rising, partial curve] and inconclusive: 18.2 µM [rising, partial curve]"
same,Potency,[3],"inconclusive: 48.8 µM [inhibitor, single point]"
same,Potency,[8],"inconclusive: 28.2 µM [rising, partial curve, poor fit] and inconclusive: 34.4 µM [rising, partial curve, poor fit]"
same,Potency,[5],"inconclusive: 54.5 µM [fluorescent, partial curve, poor fit]"
same,activation,[4],inconclusive: -44.3% and inconclusive: -8.22%
O=S(=O)(O)C(F)(F)C(F)(F)C(F)(F)C(F)(F)F,Potency,[1],"inconclusive: 27.3 µM [fluorescent, partial curve]"
same,Potency,[2],"inconclusive: 38.5 µM [cytotoxic, single point]"
same,Potency,[10],"inconclusive: 0.109 µM [rising, partial curve]"
same,Potency,[6],"inconclusive: 19.3 µM [rising, single point]"
same,Potency,[7],"inconclusive: 38.5 µM [rising, partial curve]"
same,Potency,[8],"inconclusive: 64.8 µM [rising, partial curve]"
same,"activity change, negative = inhibition",[5],inconclusive: 1.51%
same,activation,[4],inconclusive: 20.7%
same,Potency,[13],inconclusive: 2.58 µM
